Source: PubChem BioAssay AID248 (DTP/NCI, 2004)
The list does not hold the whole screen: it gathers tests that were run many times, whatever their T/C, doses with no T/C, and many T/C values between a quarter and a half above the control. Other doses and runs of a compound stand elsewhere. T/C is the treated group as % of the vehicle group. Some entries give survivors of the animals treated and no T/C: the source holds a T/C of zero for them, seemingly a mark for toxic or unscored doses. Some doses without a T/C left all or most animals alive at the check, yet need not have been tolerated: the source hardly ever lists a survival T/C far under the control, and the zero likely stands for such cases as well. Counts of survivors are from the toxicity check (mostly the fifth day) where no day follows; animals may have died later. Schedules are NCI's codes, taken here to give the interval after Q, in days (D) or hours (H), and the number of doses after X. Additions like (4×) count equal records among those shown. For survival time, this PubChem deposit counts one and a half times the control or more as active, and values a quarter to a half above the control carry no call in these data; other NCI protocols may use other cut-offs.

Test system: L1210 leukemia ip in BDF1 mice, survival T/C
Test: NCI In Vivo Anticancer Drug Screen. Data for tumor model L1210 Leukemia (intraperitoneal) in B6D2F1 (BDF1) mice
Details: T/C endpoint: mean survival time, higher T/C = longer survival
[1] = dose: 400.0 mg/kg/injection, schedule: Q04DX003 (ip), vehicle: saline
[2] = dose: 400.0 mg/kg/injection, schedule: Q01DX009 (ip), vehicle: saline with Tween-80
[3] = dose: 400.0 mg/kg/injection, schedule: Q04DX003 (ip), vehicle: Klucel (hydroxypropylcellulose) (HPC)
[4] = dose: 100.0 mg/kg/injection, schedule: Q01DX001 (ip), vehicle: saline with Tween-80

**Q.** How did the T/C (dose: 100.0 mg/kg/injection, schedule: Q01DX009 (ip), vehicle: saline) turn out when `COC(=O)c1cn[nH]c1/N=N/N(C)CCO` was run?
**A.** 130 % of control

**Q.** What about the T/C (dose: 400.0 mg/kg/injection, schedule: Q01DX009 (ip), vehicle: saline) of the same compound?
**A.** 136 % of control

**Q.** With `C[n+]1ccccc1C(=O)O` (tested in a mixture with another compound) as the compound, how does the survivor count [1] read?
**A.** 0 of 6

**Q.** What does the source list for `CSc1nn(C)c[n+]1-c1ccccc1`?
**A.** survivor count (dose: 200.0 mg/kg/injection, schedule: Q01DX001 (ip), vehicle: saline): 2 of 6; survivor count (dose: 400.0 mg/kg/injection, schedule: Q01DX001 (ip), vehicle: saline): 0 of 6

**Q.** Which survivor count (dose: 400.0 mg/kg/injection, schedule: Q04DX002 (ip), vehicle: saline with Tween-80) does the source give for `O=S1(=O)CCCCC1=C(c1ccccc1)c1ccccc1` here?
**A.** 3 of 3

**Q.** Which survivor count (dose: 3.12 mg/kg/injection, schedule: Q01DX009 (ip), vehicle: Klucel (hydroxypropylcellulose) (HPC)) does the source give for `[CH3][Sn]([CH3])([CH3])[O]C(=O)CCl` here?
**A.** 0 of 6

**Q.** What about the survivor count (dose: 3.12 mg/kg/injection, schedule: Q04DX002 (ip), vehicle: Klucel (hydroxypropylcellulose) (HPC)) of the same compound?
**A.** 1 of 3

**Q.** And the survivor count (dose: 6.25 mg/kg/injection, schedule: Q04DX002 (ip), vehicle: Klucel (hydroxypropylcellulose) (HPC))?
**A.** 0 of 3

**Q.** What about the survivor count (dose: 12.5 mg/kg/injection, schedule: Q04DX002 (ip), vehicle: Klucel (hydroxypropylcellulose) (HPC)) of the same compound?
**A.** 0 of 3

**Q.** And the survivor count (dose: 25.0 mg/kg/injection, schedule: Q04DX002 (ip), vehicle: Klucel (hydroxypropylcellulose) (HPC))?
**A.** 0 of 3

**Q.** What about the survivor count (dose: 50.0 mg/kg/injection, schedule: Q04DX002 (ip), vehicle: Klucel (hydroxypropylcellulose) (HPC)) of the same compound?
**A.** 0 of 3

**Q.** What about the survivor count (dose: 100.0 mg/kg/injection, schedule: Q04DX002 (ip), vehicle: Klucel (hydroxypropylcellulose) (HPC)) of the same compound?
**A.** 0 of 3

**Q.** What about the survivor count (dose: 200.0 mg/kg/injection, schedule: Q04DX002 (ip), vehicle: Klucel (hydroxypropylcellulose) (HPC)) of the same compound?
**A.** 0 of 3

**Q.** And the survivor count (dose: 400.0 mg/kg/injection, schedule: Q04DX002 (ip), vehicle: Klucel (hydroxypropylcellulose) (HPC))?
**A.** 0 of 3

**Q.** Which survivor count [2] does the source give for `O=C(O)c1cccc([N+](=O)[O-])c1C(=O)O` here?
**A.** 0 of 3

**Q.** For `CN1CCC2(CC1)SSC1(CCN(C)CC1)S2`, which survivor count [1] is on record?
**A.** 2 of 6

**Q.** `CCN(Cc1ccc(Cl)c(Cl)c1)c1ccc2nc(N)nc(N)c2c1C` was tested. Which T/C (dose: 12.5 mg/kg/injection, schedule: Q01DX009 (ip), vehicle: water) did it give?
**A.** 132 % of control

**Q.** What about the survivor count (dose: 25.0 mg/kg/injection, schedule: Q01DX009 (ip), vehicle: water) of the same compound?
**A.** 6 of 6 (2×)

**Q.** And the survivor count (dose: 50.0 mg/kg/injection, schedule: Q01DX009 (ip), vehicle: water)?
**A.** 6 of 6

**Q.** And the survivor count (dose: 100.0 mg/kg/injection, schedule: Q01DX009 (ip), vehicle: water)?
**A.** 2 of 6

**Q.** What about the survivor count (dose: 200.0 mg/kg/injection, schedule: Q01DX009 (ip), vehicle: water) of the same compound?
**A.** 1 of 6

**Q.** What about the survivor count (dose: 400.0 mg/kg/injection, schedule: Q01DX009 (ip), vehicle: water) of the same compound?
**A.** 0 of 6

**Q.** `CN(C)C1c2ccccc2-c2ccc(N)cc21` (configuration not stated) was tested. Which survivor count (dose: 200.0 mg/kg/injection, schedule: Q01DX001 (ip), vehicle: carboxymethylcellulose (CMC)) did it give?
**A.** 0 of 4

**Q.** What about the survivor count (dose: 400.0 mg/kg/injection, schedule: Q01DX001 (ip), vehicle: carboxymethylcellulose (CMC)) of the same compound?
**A.** 0 of 4

**Q.** Which survivor count [2] does the source give for `Cc1nc(-c2ccccc2)nc2c1CCO2` here?
**A.** 3 of 6

**Q.** `COc1ccccc1OCCOCCN(C/C=C(\C)CCC=C(C)C)C/C=C(\C)CCC=C(C)C` was tested. Which survivor count [3] did it give?
**A.** 4 of 6

**Q.** How did the survivor count [4] turn out when `CC(=O)O/C=C1\CC2C3CC=C4CC(OC(C)=O)CCC4(C)C3CCC2(C)C1=O` (configuration not stated) was run?
**A.** 3 of 3

**Q.** Which T/C (dose: 6.0 mg/kg/injection, schedule: Q01DX001 (ip), vehicle: saline with Tween-80) does the source give for `CC(=O)OCC1CCC(NC(=O)N(CCF)N=O)CC1` (configuration not stated) here?
**A.** 125 % of control

**Q.** And the T/C (dose: 30.0 mg/kg/injection, schedule: Q01DX001 (ip), vehicle: saline with Tween-80)?
**A.** 144 % of control

**Q.** And the survivor count (dose: 67.0 mg/kg/injection, schedule: Q01DX001 (ip), vehicle: saline with Tween-80)?
**A.** 3 of 6

**Q.** And the survivor count [4]?
**A.** 3 of 6

**Q.** And the survivor count (dose: 150.0 mg/kg/injection, schedule: Q01DX001 (ip), vehicle: saline with Tween-80)?
**A.** 0 of 6

**Q.** With `O=c1c(Br)cc(Cl)nc2c(Br)cc(Br)cc12` as the compound, how does the survivor count (dose: 100.0 mg/kg/injection, schedule: Q01DX009 (ip), vehicle: Klucel (hydroxypropylcellulose) (HPC)) read?
**A.** 2 of 6

**Q.** What about the survivor count (dose: 200.0 mg/kg/injection, schedule: Q01DX009 (ip), vehicle: Klucel (hydroxypropylcellulose) (HPC)) of the same compound?
**A.** 2 of 6

**Q.** What about the survivor count (dose: 200.0 mg/kg/injection, schedule: Q04DX003 (ip), vehicle: Klucel (hydroxypropylcellulose) (HPC)) of the same compound?
**A.** 1 of 6

**Q.** What about the survivor count [3] of the same compound?
**A.** 0 of 6
